The other results are listed elsewhere or left out.

This test has as its system T1, CTL2-GFP (C. trachomatis L2/434/Bu, GFP-expressing).
T1 construct: L2/434/Bu, GFP-expressing
Also on record: species or system HeLa; Intracellular C. trachomatis growth in HeLa cells, bulk GFP fluorescence relative to DMSO. As to conditions: bulk GFP, single well; 28.5 h, 10 µM; inhibitor.
As for `CCCc1cc(=O)n2c(n1)SCOC2` [CBK010967], the “% of control remaining” value is reported as 117.487%.
Then `CCc1cc(CNC(=O)C2CC3C=CC2C32CC2)on1` (stereo not shown) [CBK282071], with 132.146%; and `COc1ccc(C2=C(CC(=O)O)C(=O)CC2)cc1` [CBK264812], with 123.488%; and `CC(CCCC(C)(C)O)Nc1cncc(-c2ccccc2CO)n1` (stereo not shown) [CBK065529], with 143.338%.
Then `Cc1cc(COC(=O)N2CCSCC2)cc(C)n1` [CBK200153], with 145.263%; and `O=C(Cc1ccccc1F)N1CCCC(c2cnccn2)C1` (stereo not shown) [CBK284601], with 149.7%.
With `CCN1CCc2nc(NC(=O)c3ccc(Cl)cc3)sc2C1` [CBK287644] the figure was 123.766%.
As for `CC(=O)N1CCN(c2nnc(-c3ccccc3)o2)CC1` [CBK170332], the “% of control remaining” value was found to be 148.657%.
Turning to `Cc1nn(CC(=O)N2CCCCC2)c(=O)c2cc3ccsc3n12` [CBK284078], the “% of control remaining” value is listed as 149.309%.
`OCCc1ccc(Nc2cc(-c3cccnc3)ncn2)cc1` [CBK090768]: the “% of control remaining” value turned out to be 134.573%.
Then `N#C/C(=C\c1cn(-c2ccccc2)nc1-c1cccc(S(=O)(=O)N2CCOCC2)c1)c1nc2ccccc2c(=O)[nH]1` [CBK266357], with 135.397%; and `CCCCNS(=O)(=O)c1ccc(OCC(=O)O)cc1` [CBK268550], with 97.0712%.
With `COc1ccc(C2CCCN2S(=O)(=O)c2ccccc2[N+](=O)[O-])cc1OC` (stereo not shown) [CBK295309] the figure was 96.2523%; with `CN(C)CCN(C)c1cncc(-c2cccc3ccccc23)n1` [CBK065709], 205.942%.
With `CSc1sc(C(=O)CC#N)c2c1C=CCC2` [CBK006004], the “% of control remaining” value stood at 152.479%.
Then `CC(=O)Nc1ccc(-c2nc3cnccc3o2)cc1` [CBK287975], with 135.536%; and `O=C(Cn1c(C2CCNCC2)cc2cccnc21)NC1CCCC1` [CBK285002], with 123.349%.
Then `CC1Oc2ccccc2OC1C(=O)Nc1nnc(Cc2ccccc2)s1` (stereo not shown) [CBK295634], with 131.603%; and `CCOC(=O)CC(=O)CSc1nc(C)cc(-c2cccs2)c1C#N` [CBK267446], with 146.149%.
With `COc1ccc(OCCN2CCC3(CC2)CN(S(C)(=O)=O)c2ccccc23)cc1` [CBK126681] the figure was 67.6527%; with `COC(=O)c1sc2cc(NC(=S)NCc3ccc(S(N)(=O)=O)cc3)ccc2c1Cl` [CBK267094], 179.709%.
For the molecule `CC(C)(C)c1ccc(COn2c(=O)c(-c3ccccc3Cl)[n+]([O-])c3ccccc32)cc1` [CBK267494], the “% of control remaining” value was 113.941%.
With `Nc1nnc(SCCC(=O)N2CCN(c3ccc(F)cc3)CC2)s1` [CBK304597] the figure was 114.297%; with `O=S(=O)(NCc1ccc(C(F)(F)F)c(F)c1)c1cccc2nsnc12` [CBK062113], 144.56%; with `O=C(c1ccc(OC(F)F)cc1)N1CCCc2cc(S(=O)(=O)N3CCCCC3)ccc21` [CBK295621], 116.876%.
Then `Cc1ncncc1C(=O)N1CCCCC1CCc1ccccc1` (stereo not shown) [CBK282264], with 114.618%.
With `CCc1nc2sc(C(N)=O)c(N)c2c2c1CCCC2` [CBK131872] the figure was 158.706%.
As to `O=C(NCCn1ccnc1)C1CC(=O)N(c2cccc(F)c2)C1` (stereo not shown) [CBK281582], the “% of control remaining” value is 140.897%.
With `Cc1ccc(O)c(Nc2ncnc3ccc(Br)cc23)c1` [CBK269028C] the figure was 115.897%.
With `Cc1cc(C)c2c(n1)sc1c(N3CCC(C(=O)O)CC3)ncnc12` [CBK300512] the figure was 181.562%; with `Cc1c(C(=O)N(C)C2CCNC2)nnn1-c1ccc2ncccc2c1` (stereo not shown) [CBK304698], 113.08%; with `O=C(O)c1nc2n(n1)C(C(F)(F)F)CC(c1cccs1)N2` (stereo not shown) [CBK026415], 115.473%.
With `O=C(NCCc1cccs1)Nc1ccc(F)c(F)c1` [CBK043951] the figure was 83.0372%.
`CN(CC(=O)O)S(=O)(=O)c1ccc2c(c1)OCCO2` [CBK263904]: the “% of control remaining” value is on record as 100%.
Then `Cc1ccc(CCC(=O)Nc2nc3c(cc2C#N)CCC3)o1` [CBK306366], with 89.814%; and `O=C(CN1CCOCC1)N/N=C/c1ccncc1` [CBK019949], with 135.53%; and `O=C1CC(c2cccs2)Sc2nc3ccccc3n21` (stereo not shown) [CBK091627], with 117.125%.
As for `O=C(c1ccccc1)C(Sc1nnc2sc3ccccc3n12)c1ccccc1` (stereo not shown) [CBK265416], the “% of control remaining” value came out at 100%.
Consider `O=[N+]([O-])c1ccc(CN2CCC(Oc3cncc(OCCN4CCOCC4)n3)C2)cc1` (stereo not shown) [CBK084485], for which the “% of control remaining” value was 110.476%.
With `O=S(=O)(O)CCCSc1nc2ccccc2s1` [CBK260900N] the figure was 95.501%; with `CCCCc1c(C)nc2ccc(Br)cc2c1SCCC(=O)O` [CBK126915], 108.552%; with `CCc1nnc(N/N=C/c2cccs2)n1N` [CBK026233C], 159.444%.
With `Nc1cc(C(=O)c2ccc(Br)c(N)c2)ccc1Cl` [CBK269708] the figure was 138.308%.
For `COc1ccc(C(NC(=O)NNC(=O)Cc2ccc(Cl)cc2)c2ccccc2C)cn1` (stereo not shown) [CBK083660], the “% of control remaining” value came out at 82.1117%.
With `NCCCNC(=O)c1ccc(-c2cccc(C(F)(F)F)c2)o1` [CBK107454], the “% of control remaining” value amounted to 100%.
Then `CC(=O)Nc1ccc(S(=O)(=O)N2CCN(C(=O)COc3ccc(C)cc3)CC2)cc1` [CBK264268], with 124.937%; and `CC(=O)N[C@H](Cc1c[nH]c2ccccc12)C(=O)N1CC[C@H]2NC(=O)[C@H](Cc3ccccc3)NC(=O)C3(C/C=C/C[C@H]2C1)CCOCC3` [CBK292205], with 106.577%; and `COc1ccc(CN2CCN(c3nccnc3OC)CC2)cc1` [CBK084216], with 105.715%.
Turning to `c1csc(CNc2c(-c3cccs3)nc3cnccn23)c1` [CBK283685], the “% of control remaining” value is on record as 154.077%.
With `Cc1ccc(Cl)cc1NC(=O)C1CC(=O)N(Cc2ccccn2)C1` (stereo not shown) [CBK305561] the figure was 113.603%; with `COCCNc1nccnc1-c1cccc(C(F)(F)F)c1` [CBK037330], 101.372%.
Then `CC(C)NC(=O)[C@H]1O[C@H](CCN2CCOCC2)CC[C@@H]1O` [CBK288720], with 125.068%.

The values are drawn from PMC12040169 (PLOS Biology, 2025).
